Data: paper PMC5267519, “Evaluation of a Novel Renewable Hepatic Cell Model for Prediction of Clinical CYP3A4 Induction Using a Correlation-Based Relative Induction Score Approach” (Drug Metabolism and Disposition, 2017)
Values joined by “and” are separate entries in the source; they are usually repeats but may differ in a detail not shown here. Identical values can stand only once.

Legend:
CYP3A4 [1] = test system: CYP3A4
From the text: The resulting fitting equation was used to calculate predicted in vivo AUC change for each compound. […] Prediction accuracy using HepatoCells was also compared with prediction accuracy using primary human hepatocytes.

CYP3A4 mRNA [2] = test system: CYP3A4 mRNA
CYP3A4 [3] = test system: CYP3A4; remark: listed apart in the source
CYP3A4 mRNA [4] = experiment: in vitro; details: human

COC(=O)C1=C(C)NC(C)=C(C(=O)OC)C1c1ccccc1[N+](=O)[O-] [Nifedipine]
Predicted % AUC Change Based on Activity (CYP3A4 [1]): 8.9% and 2.1% and 0.63% | Predicted % AUC Change Based on mRNA (CYP3A4 [1]): 4.4% and 0.89% and 8.3% | Predicted AUC change using HepatoCells (range of lots) (CYP3A4 [1]): 0.9–8% | CYP3A4 mRNA expression induction response (in words) (CYP3A4 mRNA [2]): positive induction response | CYP3A4 mRNA induction over solvent vehicle control (CYP3A4 mRNA [2]; human): greater than 1.4 fold | Emax, mRNA expression (all lots) (CYP3A4 mRNA [2]; human): greater than 20 fold | RIS Based on mRNA, Mean (CYP3A4 mRNA [2]; human): 0.13 | RIS values based on CYP3A4 mRNA level (range stated for group of compounds) (CYP3A4 mRNA [2]; human): 0.0012–0.16 | CYP3A4 enzyme activity induction response (in words) (CYP3A4 [3]): positive induction response | CYP3A4 enzyme activity induction over solvent vehicle control (CYP3A4 [3]; human): greater than 1.4 fold | Emax, enzyme activity (all lots) (CYP3A4 [3]; human): greater than 20 fold | RIS Based on Enzyme Activity, Mean (CYP3A4 [3]; human): 0.0697 | RIS values based on enzyme activity (range stated for group of compounds) (CYP3A4 [3]; human): 0.0004–0.09 | EC50 (CYP3A4 mRNA [4]): 3.5 µM
